The source of these data is article PMC7462607 (eLife, 2020).

The nature of this series: peptide made by a vendor. The settings on record: whole synthesis.

HELM strings list residues between dots; [ac] is acetyl, [am] amide, other brackets name non-standard units.

With “PEPTIDE1{I.L.P.K.V.L.H.K.R.T.L.G.L.S}$$$$V2.0”, the “purity (crude or final not stated)” value is recorded as 96%.
